The list shows a part of the results.

Amino acid sequences for entries named in this document (tags omitted). A change or cut given only in a name is not applied to a line headed by its entry.
UniProt Q9H4L5: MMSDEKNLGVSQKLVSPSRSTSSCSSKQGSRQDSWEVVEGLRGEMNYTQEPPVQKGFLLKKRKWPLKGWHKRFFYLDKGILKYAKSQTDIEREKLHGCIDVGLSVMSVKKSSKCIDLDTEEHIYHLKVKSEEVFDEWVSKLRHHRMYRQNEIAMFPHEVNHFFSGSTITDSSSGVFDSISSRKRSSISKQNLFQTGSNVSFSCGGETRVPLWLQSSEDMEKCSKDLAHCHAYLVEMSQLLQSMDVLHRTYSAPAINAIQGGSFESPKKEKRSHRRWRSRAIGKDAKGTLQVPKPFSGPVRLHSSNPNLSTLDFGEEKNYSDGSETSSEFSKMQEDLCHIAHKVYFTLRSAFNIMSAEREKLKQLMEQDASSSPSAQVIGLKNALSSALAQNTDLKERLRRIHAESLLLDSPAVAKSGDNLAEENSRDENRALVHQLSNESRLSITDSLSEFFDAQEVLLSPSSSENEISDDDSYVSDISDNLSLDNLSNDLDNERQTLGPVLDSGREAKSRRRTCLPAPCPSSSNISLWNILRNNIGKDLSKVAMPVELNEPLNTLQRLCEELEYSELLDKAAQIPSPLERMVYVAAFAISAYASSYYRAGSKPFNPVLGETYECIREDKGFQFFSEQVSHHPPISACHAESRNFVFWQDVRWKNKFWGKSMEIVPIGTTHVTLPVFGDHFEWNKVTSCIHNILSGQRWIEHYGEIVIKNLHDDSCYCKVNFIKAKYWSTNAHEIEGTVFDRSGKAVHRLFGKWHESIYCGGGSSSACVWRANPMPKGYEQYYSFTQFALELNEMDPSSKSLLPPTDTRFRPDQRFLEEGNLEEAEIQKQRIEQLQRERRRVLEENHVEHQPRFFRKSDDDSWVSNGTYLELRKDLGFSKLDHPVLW
UniProt Q9BTK6, whole entry, looked up: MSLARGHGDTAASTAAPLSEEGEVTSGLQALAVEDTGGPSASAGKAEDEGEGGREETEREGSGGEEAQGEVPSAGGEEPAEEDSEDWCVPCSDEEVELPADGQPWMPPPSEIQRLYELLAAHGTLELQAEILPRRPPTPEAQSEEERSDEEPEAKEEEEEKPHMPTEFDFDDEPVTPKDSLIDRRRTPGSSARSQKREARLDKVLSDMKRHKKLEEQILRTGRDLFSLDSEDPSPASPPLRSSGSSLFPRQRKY
UniProt Q8N1F7: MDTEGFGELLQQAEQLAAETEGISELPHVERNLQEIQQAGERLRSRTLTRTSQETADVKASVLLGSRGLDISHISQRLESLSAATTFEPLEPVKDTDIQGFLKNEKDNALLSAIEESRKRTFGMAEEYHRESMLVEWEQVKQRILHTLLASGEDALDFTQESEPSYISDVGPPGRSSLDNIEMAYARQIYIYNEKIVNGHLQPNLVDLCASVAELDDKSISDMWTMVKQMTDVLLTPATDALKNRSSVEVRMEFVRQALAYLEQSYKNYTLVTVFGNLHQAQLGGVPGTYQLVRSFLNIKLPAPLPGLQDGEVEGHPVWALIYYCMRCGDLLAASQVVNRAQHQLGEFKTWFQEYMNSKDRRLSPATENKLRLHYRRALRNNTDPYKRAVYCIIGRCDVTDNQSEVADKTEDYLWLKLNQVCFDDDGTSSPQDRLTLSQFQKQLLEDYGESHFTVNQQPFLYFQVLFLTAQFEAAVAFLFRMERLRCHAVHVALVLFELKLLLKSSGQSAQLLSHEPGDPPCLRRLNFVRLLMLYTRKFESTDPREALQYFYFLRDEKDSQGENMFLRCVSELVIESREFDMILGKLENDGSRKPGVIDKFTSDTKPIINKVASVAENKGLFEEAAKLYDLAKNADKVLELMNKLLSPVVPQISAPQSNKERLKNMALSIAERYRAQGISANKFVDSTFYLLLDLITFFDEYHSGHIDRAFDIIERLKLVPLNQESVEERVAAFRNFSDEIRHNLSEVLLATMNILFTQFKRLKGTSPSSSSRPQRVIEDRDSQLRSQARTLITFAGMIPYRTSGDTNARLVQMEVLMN
UniProt Q15102: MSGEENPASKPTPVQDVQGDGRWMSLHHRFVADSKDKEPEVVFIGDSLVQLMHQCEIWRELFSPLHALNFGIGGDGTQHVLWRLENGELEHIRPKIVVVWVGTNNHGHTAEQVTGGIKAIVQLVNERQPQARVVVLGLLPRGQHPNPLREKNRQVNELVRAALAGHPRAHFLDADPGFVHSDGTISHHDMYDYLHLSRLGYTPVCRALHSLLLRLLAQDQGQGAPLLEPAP
UniProt Q9NZT2: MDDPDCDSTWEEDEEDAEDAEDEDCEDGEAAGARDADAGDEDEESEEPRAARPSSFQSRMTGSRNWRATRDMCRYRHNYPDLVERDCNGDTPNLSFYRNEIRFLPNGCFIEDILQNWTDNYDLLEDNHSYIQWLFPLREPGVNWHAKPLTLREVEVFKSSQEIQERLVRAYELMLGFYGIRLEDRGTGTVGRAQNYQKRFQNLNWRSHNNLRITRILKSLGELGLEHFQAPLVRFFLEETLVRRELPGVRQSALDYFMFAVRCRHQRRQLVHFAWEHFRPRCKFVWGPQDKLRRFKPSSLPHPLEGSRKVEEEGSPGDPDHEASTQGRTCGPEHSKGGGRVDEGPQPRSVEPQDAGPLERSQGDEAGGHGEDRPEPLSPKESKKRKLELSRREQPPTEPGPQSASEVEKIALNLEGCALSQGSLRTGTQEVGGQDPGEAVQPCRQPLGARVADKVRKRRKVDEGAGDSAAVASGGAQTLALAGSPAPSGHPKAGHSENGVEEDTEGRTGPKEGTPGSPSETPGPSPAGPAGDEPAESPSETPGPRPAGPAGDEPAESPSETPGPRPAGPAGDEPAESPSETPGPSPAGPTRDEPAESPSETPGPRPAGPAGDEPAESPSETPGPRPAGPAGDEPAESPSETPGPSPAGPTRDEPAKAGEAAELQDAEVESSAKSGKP
UniProt Q9UNF0: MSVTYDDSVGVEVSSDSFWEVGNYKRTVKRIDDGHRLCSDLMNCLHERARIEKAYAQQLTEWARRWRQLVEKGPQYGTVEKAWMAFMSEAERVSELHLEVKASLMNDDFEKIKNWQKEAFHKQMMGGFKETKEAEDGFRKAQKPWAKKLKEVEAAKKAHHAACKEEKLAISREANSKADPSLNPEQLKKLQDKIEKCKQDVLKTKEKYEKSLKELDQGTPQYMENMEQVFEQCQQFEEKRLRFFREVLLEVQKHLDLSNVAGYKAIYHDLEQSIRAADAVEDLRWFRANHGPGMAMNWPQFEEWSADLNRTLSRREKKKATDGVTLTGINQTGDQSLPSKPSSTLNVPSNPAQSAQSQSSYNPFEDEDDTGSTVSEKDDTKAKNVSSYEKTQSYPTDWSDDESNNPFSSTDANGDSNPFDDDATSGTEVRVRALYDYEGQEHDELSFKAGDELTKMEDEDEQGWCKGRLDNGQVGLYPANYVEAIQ
UniProt Q9H074: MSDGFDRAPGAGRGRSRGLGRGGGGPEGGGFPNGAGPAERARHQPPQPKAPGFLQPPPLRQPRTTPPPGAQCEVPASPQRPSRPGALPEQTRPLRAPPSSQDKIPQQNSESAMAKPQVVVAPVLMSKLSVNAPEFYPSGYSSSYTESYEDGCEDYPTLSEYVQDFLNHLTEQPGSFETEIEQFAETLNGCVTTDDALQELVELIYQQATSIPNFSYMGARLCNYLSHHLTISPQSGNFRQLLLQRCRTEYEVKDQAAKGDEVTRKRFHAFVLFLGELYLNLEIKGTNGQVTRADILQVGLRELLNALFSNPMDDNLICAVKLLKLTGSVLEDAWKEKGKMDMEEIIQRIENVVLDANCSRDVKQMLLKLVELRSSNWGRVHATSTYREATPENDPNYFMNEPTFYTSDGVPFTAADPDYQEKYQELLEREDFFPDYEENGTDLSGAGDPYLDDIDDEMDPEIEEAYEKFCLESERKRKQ
UniProt Q96E52: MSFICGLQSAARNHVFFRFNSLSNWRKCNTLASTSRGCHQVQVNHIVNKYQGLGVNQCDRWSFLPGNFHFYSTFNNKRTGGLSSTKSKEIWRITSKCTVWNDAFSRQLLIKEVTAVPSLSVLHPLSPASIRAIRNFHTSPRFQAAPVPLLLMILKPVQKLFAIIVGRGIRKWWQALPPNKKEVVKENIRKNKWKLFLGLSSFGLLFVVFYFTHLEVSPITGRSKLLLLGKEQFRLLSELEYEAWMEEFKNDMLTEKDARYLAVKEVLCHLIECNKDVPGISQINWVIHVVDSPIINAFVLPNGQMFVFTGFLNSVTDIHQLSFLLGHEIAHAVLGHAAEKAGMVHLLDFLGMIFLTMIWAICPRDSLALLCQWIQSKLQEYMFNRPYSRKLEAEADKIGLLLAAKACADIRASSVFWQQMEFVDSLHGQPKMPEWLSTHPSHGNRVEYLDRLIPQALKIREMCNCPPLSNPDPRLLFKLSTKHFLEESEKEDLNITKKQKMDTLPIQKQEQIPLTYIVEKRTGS
UniProt O43482, whole entry, looked up: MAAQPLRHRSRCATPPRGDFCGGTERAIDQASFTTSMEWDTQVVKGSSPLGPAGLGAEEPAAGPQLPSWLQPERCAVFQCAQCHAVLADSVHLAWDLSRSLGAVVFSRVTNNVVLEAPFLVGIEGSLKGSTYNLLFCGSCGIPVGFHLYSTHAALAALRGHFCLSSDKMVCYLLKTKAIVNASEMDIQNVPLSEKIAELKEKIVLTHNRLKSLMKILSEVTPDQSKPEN
UniProt Q86W56: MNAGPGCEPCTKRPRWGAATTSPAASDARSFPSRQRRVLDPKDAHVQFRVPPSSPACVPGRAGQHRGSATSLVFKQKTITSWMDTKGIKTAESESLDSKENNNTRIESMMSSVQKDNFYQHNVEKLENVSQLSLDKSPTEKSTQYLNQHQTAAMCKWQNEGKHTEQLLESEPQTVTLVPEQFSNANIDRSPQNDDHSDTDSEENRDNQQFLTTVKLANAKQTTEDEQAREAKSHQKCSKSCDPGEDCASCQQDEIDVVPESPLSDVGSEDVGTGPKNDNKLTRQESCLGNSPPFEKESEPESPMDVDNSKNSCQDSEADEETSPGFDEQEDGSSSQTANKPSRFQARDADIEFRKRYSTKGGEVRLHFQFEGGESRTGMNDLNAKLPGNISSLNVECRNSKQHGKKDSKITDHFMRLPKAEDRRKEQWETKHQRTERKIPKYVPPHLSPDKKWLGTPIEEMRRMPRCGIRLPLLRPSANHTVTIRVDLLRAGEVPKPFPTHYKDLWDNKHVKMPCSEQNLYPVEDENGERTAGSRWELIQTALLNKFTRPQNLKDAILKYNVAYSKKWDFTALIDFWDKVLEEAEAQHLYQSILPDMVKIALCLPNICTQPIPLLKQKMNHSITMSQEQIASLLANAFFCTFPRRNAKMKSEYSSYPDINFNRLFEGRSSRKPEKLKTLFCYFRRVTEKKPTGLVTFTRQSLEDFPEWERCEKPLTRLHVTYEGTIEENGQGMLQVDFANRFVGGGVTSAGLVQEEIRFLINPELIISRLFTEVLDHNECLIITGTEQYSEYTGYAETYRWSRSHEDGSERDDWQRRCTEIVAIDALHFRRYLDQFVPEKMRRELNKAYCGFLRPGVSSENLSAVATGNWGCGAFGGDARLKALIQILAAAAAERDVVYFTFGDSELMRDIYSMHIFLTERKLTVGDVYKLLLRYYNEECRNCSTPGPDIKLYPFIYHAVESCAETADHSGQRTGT
UniProt Q9Y5N6: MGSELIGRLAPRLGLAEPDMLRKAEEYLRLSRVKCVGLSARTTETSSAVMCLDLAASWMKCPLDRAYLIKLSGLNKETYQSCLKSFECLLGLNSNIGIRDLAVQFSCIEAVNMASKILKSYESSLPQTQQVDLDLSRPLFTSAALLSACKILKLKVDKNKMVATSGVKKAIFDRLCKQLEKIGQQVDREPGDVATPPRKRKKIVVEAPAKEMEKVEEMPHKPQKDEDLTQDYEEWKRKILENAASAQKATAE
UniProt Q5W0B1: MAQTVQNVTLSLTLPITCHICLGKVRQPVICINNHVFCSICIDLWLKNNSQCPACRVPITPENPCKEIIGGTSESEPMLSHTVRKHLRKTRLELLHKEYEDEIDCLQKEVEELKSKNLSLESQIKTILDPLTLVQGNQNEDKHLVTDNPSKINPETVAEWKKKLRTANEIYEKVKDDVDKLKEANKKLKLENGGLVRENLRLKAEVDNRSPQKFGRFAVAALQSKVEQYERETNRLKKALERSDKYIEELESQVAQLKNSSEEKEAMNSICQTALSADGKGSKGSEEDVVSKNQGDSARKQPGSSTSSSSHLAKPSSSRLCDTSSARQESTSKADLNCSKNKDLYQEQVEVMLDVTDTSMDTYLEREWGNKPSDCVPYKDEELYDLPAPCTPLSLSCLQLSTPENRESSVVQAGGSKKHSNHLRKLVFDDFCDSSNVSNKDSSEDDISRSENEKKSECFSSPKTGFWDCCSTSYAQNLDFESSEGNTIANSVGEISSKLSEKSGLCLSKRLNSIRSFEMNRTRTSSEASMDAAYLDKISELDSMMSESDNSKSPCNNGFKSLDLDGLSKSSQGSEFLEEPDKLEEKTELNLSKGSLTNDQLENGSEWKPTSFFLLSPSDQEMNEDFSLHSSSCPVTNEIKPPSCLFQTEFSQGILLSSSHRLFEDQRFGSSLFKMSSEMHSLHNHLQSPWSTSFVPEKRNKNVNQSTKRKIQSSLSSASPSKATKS

Compound in the assay: c1ccc([C@@H]2C[C@H]2NC2CCNCC2)cc1
Description: log2 fold change, soluble protein after heating vs DMSO (PISA); higher = thermal stabilisation; K562 lysate, 10 uM; active = over 0.2 and 3.5 SD of the protein, either way, in both replicates (recomputed). The method in brief:
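Following dounce homogenisation of K562 pellets in PBS pH 7.4 with 1 mM MgCl2, crude extract at 1 mg/mL protein was incubated for 30 min with 10 μM compound. Aliquots were then heated for 3 min over 48°C-58°C and pooled, NP-40 was added to 0.5% at 4°C, and soluble protein was recovered as the supernatant at 21,000xg for 90 min. Channel-sum-equalised TMTpro 16plex LC-MS/MS quantified this protein. Each value, from duplicates, is a log-two fold change in thermal stability relative to solvent controls.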
With PANK3 (UniProt Q9H999), the log2 fold change is inactive: -0.061. As to PARK7 (UniProt Q99497), the log2 fold change was inactive: 0.021. The figure for OSBPL3 isoform 2 (UniProt Q9H4L5) is inactive: 0.004; for PABPC4 isoform 3 (UniProt Q13310) it is inactive: 0.041. As to PAGR1 (UniProt Q9BTK6), the log2 fold change is inactive: 0.042.

As for PAICS (UniProt E9PBS1), the log2 fold change was inactive: 0.169. Take OXA1L (UniProt Q15070): the log2 fold change was inactive: -0.007. Take OTULIN (UniProt Q96BN8): the log2 fold change is inactive: 0.004.

With NUP188 (UniProt Q5SRE5), the log2 fold change was inactive: 0.016. As for NUP54 (UniProt Q7Z3B4), the log2 fold change is inactive: -0.048. As to OTUD4 (UniProt Q01804), the log2 fold change was inactive: 0.012.

Regarding NUP93 (UniProt Q8N1F7), the log2 fold change was inactive: 0.031. On to PARD6B (UniProt Q9BYG5), for which the log2 fold change was inactive: 0.006.

For PAFAH1B3 (UniProt Q15102), the log2 fold change is inactive: 0.014.

As for OGFR (UniProt Q9NZT2), the log2 fold change was inactive: 0.088.

With PACSIN2 (UniProt Q9UNF0), the log2 fold change is inactive: 0.05. PAIP1 (UniProt Q9H074): the log2 fold change was inactive: -0.052. Take OMA1 (UniProt Q96E52): the log2 fold change is inactive: 0.016. On to OIP5 (UniProt O43482), for which the log2 fold change is inactive: -0.089. Turning to OSTC isoform 2 (UniProt Q9NRP0), the log2 fold change was inactive: 0.081. Consider OSBPL9 isoform 2 (UniProt Q96SU4), for which the log2 fold change was inactive: 0.005.

On to OCRL (UniProt Q01968), for which the log2 fold change was inactive: -0.017.

For OTUD6B (UniProt Q8N6M0), the log2 fold change is inactive: 0.083. The same measure for OSTC (UniProt Q9NRP0): inactive: -0.06. Regarding OSBPL6 isoform 5 (UniProt Q9BZF3), the log2 fold change was inactive: -0.087. With ORC2 (UniProt Q13416), the log2 fold change was inactive: 0.044. With OSBPL8 (UniProt Q9BZF1), the log2 fold change is inactive: 0.057. NUP214 (UniProt P35658): the log2 fold change was inactive: -0.002. For the target PAAF1 (UniProt Q9BRP4), the log2 fold change is inactive: -0.049. Take PARG (UniProt Q86W56): the log2 fold change was inactive: 0.091. The figure for ORC6 (UniProt Q9Y5N6) is inactive: 0.13; for OBI1 (UniProt Q5W0B1) it is inactive: 0.02.

Source of the values: the supplement of paper PMC10849652.
